This is an account of results in patent US20210395323A1 (UNIVERSIT T STUTTGART, published 2021).

Assay [1] has as its target T1, human TNFR2-Fc fusion protein (human, UniProt P20333 23-257).
T1 construct: also called huTNFR2-Fc; huTNFR2
T1 sequence (looked up): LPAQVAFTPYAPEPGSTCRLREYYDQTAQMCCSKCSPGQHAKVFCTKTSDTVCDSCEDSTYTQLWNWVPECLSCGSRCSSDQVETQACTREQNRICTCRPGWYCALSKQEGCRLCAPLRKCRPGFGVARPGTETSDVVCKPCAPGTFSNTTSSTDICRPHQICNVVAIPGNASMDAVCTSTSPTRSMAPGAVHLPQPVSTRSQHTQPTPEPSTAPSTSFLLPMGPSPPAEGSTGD
Briefly: ELISA, huTNFR2-Fc coated at 1 µg/ml, bound protein detected with anti-TNF F6C5. As for the experimental part:
ELISA plates (Greiner, Frickenhausen, Germany) were coated with huTNFR1-Fc, mTNFR1-Fc, huTNFR2-Fc or mTNFR2-Fc fusion proteins at 1 μg/ml in PBS and incubated at 4° C. overnight. Residual binding sites were blocked with 2% skim milk powder in PBS at RT for 2 hours. ScTNFR2 and the complexes were diluted in 2% skim milk powder in PBS and added at concentrations in the range of 10⁻³ to 10 nM and incubated for 1 hour at RT. Between each step, non-bound proteins were removed by washing 4 times with 0.005% Tween-20 in PBS.
Bound proteins were detected with mouse monoclonal antibodies to TNF (clone F6C5; 1 μg/ml; incubation for 1 hour at RT) and HRP-conjugated anti-mouse IgG antibodies (diluted 1:10000; incubation for 1 hour at RT), followed by incubation with tetramethylbenzidine (TMB) substrate solution. Reaction was stopped by addition of 1 M H₂SO₄ and the absorbance at 450 nm was determined with a Multiskan FC absorbance reader (Thermo Scientific, Karlsruhe, Germany) and data were analyzed using the software Microsoft Excel and GraphPad Prism 4 (GraphPad, La Jolla, Calif.) (FIG. 5). In Table 3, the calculated EC₅₀ values for the binding of TNF, scTNFR2 and the complexes to immobilized huTNFR2 and mTNFR2 based on the ELISA assay are summarized.
For orientation: An ELISA detects its analyte on a solid surface through an enzyme-linked reagent.

For assay [2], the target named is T2, TNFR2 on human cells (Kym-1 cells; human CD3+ T cells) (human, UniProt P20333 23-461).
T2 sequence (looked up): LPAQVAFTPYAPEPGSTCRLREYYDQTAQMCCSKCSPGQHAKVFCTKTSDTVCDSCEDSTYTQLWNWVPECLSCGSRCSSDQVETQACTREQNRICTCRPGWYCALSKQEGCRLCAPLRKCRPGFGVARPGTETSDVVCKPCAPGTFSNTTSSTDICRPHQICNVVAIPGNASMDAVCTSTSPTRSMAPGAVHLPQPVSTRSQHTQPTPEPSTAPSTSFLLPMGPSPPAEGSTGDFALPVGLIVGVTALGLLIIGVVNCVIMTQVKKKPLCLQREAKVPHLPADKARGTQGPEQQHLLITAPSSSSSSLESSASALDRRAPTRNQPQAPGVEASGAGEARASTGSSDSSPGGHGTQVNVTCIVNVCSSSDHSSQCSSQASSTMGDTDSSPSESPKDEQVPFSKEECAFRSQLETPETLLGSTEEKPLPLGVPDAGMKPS
Put plainly: cell-based or functional assay.

A word on the EC50: it is the midpoint of the concentration-response curve. Higher therefore signals lower potency in that assay.

B1: GCN4-scTNFR2 (human) (ligand)
chain: RLKQIEDKLEEILSKLYHIENELARIKKLLGERGAPGGGSGGGSGGGSGGGSGGGSGGSEFLASSRTPSDKPVAHVVANPQAEGQLQWLNRRANALLANGVELRDNQLVVPSEGLYLIYSQVLFKGQGCPSTHVLLTHTISRIAVSYQTKVNLLSAIKSPCQRETPEGAEAKPWYEPIYLGGVFQLEKGDRLSAEINRPDYLNFRESGQVYFGIIALGGGGSSSRTPSDKPVAHVVANPQAEGQLQWLNRRANALLANGVELRDNQLVVPSEGLYLIYSQVLFKGQGCPSTHVLLTHTISRIAVSYQTKVNLLSAIKSPCQRETPEGAEAKPWYEPIYLGGVFQLEKGDRLSAEINRPDYLNFRESGQVYFGIIALGGGGSSSRTPSDKPVAHVVANPQAEGQLQWLNRRANALLANGVELRDNQLVVPSEGLYLIYSQVLFKGQGCPSTHVLLTHTISRIAVSYQTKVNLLSAIKSPCQRETPEGAEAKPWYEPIYLGGVFQLEKGDRLSAEINRPDYLNFRESGQVYFGIIAL
In the case of B1, the response in assay [1] was half-maximal at 0.0312 nM (EC50). In assay [2], the “EC50 values (nM) of cell death induction using Kym-1 cells” value turned out to be 0.0025 nM.
